Assay results taken from PMC5499540.
Results are given in words; binding and its absence hold for the method and conditions named. Some results given as binding are weak or reduced against the parent protein; the word gives no strength.

Sequences of proteins named here, by UniProt entry; tags and fusion partners are left off. A change or cut given only in a name is not applied to a line headed by its entry. A line that says so, or that is headed by a name, gives the form on record, which may keep a tag or linker. Residues count along the entry.
UniProt Q05471: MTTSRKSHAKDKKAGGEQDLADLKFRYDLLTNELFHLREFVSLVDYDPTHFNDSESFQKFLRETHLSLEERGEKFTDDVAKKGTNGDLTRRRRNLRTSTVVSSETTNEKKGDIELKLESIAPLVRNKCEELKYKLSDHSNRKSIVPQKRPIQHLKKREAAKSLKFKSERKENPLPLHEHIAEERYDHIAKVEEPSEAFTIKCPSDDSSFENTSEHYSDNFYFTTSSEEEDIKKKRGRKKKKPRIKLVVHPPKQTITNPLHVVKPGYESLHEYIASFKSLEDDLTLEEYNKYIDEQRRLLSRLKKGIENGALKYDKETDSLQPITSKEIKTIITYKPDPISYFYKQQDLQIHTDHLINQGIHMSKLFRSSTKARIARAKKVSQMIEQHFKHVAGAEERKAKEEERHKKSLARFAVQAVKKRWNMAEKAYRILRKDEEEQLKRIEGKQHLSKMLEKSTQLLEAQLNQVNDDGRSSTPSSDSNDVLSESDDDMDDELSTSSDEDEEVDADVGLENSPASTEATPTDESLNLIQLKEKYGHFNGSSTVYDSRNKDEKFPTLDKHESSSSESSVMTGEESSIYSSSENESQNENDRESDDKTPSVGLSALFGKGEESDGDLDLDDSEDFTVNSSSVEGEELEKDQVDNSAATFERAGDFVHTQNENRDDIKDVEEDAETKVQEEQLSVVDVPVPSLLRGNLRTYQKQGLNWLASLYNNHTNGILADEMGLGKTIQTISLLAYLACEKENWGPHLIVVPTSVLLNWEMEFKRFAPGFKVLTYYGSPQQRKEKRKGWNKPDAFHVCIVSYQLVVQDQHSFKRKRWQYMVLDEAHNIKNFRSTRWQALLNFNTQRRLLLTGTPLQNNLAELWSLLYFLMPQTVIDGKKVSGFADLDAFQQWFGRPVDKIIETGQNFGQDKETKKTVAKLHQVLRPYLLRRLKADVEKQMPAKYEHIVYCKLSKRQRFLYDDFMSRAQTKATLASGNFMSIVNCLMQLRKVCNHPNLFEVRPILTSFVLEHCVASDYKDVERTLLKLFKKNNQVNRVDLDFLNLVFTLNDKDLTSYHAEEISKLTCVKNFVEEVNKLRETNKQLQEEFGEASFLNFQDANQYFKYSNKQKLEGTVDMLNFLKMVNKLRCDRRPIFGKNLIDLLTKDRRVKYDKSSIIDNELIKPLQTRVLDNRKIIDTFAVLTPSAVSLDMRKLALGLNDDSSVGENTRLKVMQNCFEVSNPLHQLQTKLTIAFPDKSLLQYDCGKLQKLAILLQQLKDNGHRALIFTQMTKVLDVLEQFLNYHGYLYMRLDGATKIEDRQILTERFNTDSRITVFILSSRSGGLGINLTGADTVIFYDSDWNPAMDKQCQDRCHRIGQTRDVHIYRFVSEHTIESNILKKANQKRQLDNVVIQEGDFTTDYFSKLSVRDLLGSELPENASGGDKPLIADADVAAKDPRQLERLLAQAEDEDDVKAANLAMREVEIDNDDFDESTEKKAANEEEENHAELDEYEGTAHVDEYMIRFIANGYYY
Swr1 C-terminal truncation, truncated at residue 1497: residues 1-1497 of Q05471
Swr1 C-terminal truncation at residue 1460: residues 1-1460 of Q05471
Swr1 C-terminal truncation at residue 1410: residues 1-1410 of Q05471
Swr1 C-terminal truncation to 1359: residues 1-1359 of Q05471
Swr1 residues 1–681 (NTD): residues 1-681 of Q05471
Swr1 N-terminal truncation, first 210 residues removed: residues 211-1514 of Q05471
Swr1 N-terminal truncation, first 264 residues removed: residues 265-1514 of Q05471
Swr1 N-terminal truncation to residue 299: residues 300-1514 of Q05471
Swr1 N-terminal truncation, 339 residues deleted: residues 340-1514 of Q05471
Swr1 N-terminal truncation to residue 369: residues 370-1514 of Q05471
Swr1 N-terminal truncation to residue 409: residues 410-1514 of Q05471
Swr1 actin binding site deletion mutant ΔA1 (missing residues 370–409) (Q05471, form named): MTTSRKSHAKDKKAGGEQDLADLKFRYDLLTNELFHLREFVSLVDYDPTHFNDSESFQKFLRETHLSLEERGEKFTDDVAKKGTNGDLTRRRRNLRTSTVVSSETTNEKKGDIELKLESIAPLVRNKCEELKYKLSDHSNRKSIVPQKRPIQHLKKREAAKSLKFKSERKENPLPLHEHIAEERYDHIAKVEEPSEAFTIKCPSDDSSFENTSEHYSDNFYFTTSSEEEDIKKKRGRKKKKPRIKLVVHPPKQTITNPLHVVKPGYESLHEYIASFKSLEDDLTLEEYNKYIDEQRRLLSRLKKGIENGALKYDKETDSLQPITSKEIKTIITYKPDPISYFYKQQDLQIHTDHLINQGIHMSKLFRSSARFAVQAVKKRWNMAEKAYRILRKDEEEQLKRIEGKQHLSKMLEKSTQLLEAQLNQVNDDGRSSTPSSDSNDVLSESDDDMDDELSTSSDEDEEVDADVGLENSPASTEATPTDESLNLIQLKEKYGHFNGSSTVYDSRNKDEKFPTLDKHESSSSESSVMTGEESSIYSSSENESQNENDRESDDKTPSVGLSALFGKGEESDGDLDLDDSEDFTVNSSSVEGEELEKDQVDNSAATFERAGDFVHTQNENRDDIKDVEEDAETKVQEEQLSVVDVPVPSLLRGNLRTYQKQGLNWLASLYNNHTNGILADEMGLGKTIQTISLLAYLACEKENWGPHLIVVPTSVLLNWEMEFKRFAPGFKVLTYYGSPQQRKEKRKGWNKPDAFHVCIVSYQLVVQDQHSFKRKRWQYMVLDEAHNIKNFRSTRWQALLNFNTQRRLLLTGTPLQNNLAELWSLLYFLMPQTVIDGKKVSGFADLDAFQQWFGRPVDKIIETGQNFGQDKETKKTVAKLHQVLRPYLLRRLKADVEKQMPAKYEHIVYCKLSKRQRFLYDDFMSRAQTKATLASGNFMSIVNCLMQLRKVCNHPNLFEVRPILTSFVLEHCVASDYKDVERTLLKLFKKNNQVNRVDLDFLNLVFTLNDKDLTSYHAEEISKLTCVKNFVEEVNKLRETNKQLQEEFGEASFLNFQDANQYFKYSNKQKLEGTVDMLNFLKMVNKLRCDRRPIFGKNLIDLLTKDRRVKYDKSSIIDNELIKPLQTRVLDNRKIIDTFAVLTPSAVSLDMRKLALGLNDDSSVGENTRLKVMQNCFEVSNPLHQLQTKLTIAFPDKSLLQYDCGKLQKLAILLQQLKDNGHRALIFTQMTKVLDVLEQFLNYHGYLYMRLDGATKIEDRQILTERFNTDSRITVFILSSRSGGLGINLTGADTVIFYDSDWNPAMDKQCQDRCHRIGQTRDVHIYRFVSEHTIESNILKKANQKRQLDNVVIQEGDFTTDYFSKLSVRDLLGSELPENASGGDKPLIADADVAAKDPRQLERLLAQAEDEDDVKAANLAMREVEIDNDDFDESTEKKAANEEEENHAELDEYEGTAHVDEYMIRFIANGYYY
Swr1 actin binding site deletion mutant ΔA2 (missing residues 410–459) (Q05471, form named): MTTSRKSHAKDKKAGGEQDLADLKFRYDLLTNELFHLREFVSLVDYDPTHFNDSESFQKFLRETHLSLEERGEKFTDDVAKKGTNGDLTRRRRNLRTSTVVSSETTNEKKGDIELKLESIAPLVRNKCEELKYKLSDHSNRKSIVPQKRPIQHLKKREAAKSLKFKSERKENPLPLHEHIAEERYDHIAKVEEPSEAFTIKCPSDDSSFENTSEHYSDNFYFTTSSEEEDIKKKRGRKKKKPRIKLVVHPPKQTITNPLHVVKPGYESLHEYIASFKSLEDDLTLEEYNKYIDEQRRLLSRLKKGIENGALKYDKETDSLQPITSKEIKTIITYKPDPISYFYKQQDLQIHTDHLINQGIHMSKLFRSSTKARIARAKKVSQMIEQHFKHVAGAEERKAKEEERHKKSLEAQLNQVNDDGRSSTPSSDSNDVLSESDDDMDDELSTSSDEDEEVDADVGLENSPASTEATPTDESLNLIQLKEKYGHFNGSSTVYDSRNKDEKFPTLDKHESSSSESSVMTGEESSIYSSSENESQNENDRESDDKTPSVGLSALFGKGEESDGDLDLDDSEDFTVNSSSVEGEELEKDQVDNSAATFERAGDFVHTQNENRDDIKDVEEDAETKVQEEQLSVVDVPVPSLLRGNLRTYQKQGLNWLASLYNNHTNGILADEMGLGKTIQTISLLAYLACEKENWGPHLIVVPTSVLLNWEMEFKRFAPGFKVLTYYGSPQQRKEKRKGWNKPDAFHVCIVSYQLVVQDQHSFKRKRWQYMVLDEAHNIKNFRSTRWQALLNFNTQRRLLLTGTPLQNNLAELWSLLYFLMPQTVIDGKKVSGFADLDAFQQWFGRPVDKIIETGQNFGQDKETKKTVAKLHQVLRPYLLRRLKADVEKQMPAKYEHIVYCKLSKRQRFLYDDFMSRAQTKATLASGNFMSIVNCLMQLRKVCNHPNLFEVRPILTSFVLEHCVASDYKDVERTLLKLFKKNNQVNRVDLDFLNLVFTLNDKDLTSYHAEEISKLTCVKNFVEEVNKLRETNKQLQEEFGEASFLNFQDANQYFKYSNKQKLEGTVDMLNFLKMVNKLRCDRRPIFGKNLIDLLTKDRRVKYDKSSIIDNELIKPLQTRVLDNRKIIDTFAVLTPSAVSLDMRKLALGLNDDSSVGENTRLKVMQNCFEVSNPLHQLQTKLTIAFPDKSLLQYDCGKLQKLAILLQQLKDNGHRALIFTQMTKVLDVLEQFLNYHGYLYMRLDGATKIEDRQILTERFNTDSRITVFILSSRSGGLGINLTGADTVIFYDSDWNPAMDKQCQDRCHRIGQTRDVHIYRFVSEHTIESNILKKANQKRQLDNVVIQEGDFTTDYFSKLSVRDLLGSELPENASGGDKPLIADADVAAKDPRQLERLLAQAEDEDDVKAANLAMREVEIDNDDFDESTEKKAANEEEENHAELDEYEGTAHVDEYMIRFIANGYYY
Swr1 residues (1–681)-(GGGS)2-(1360–1514) (ΔATPase) (Q05471, form named): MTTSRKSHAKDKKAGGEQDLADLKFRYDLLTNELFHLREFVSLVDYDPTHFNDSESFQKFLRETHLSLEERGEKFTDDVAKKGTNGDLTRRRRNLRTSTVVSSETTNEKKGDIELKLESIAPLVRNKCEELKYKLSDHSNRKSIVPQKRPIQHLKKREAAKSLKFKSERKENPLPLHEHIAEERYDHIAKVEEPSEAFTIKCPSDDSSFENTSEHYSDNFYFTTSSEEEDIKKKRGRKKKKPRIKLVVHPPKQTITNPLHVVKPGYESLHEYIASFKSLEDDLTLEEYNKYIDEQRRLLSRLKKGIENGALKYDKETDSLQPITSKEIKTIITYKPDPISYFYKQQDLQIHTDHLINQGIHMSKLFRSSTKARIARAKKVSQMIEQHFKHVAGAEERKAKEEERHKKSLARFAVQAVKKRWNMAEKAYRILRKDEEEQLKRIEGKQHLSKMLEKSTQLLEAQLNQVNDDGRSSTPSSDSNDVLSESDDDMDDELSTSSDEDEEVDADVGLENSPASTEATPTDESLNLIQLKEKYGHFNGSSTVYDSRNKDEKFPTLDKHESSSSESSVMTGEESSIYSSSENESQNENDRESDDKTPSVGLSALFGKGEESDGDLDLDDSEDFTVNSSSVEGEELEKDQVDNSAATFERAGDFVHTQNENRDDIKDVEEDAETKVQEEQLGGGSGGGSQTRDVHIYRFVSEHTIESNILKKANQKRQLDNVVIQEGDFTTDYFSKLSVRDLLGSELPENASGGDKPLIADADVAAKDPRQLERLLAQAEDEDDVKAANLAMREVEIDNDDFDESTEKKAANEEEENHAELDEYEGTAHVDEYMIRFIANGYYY

What was measured:
[1] = biological target: Swr1 actin binding site deletion mutant ΔA1 (missing residues 370–409) (yeast) (UniProt Q05471); assay: co-purification of co-expressed subunits (StrepTactin affinity, ion exchange, SDS gel); all fourteen genes co-expressed in High Five cells; lysis and wash in 50 mM Tris pH 8.0, 500 mM NaCl; captured by the twin Strep-tag of Swr1 or its variant on StrepTactin HP, then HiTrap Q HP; bands on the SDS gel identified by mass spectrometry
[2] = biological target: Swr1 N-terminal truncation to residue 369 (yeast) (UniProt Q05471); assay: as above
[3] = biological target: Swr1 C-terminal truncation at residue 1460 (yeast) (UniProt Q05471); assay: as above
[4] = biological target: Swr1 N-terminal truncation, 339 residues deleted (yeast) (UniProt Q05471); assay: as above
[5] = biological target: Swr1 residues 1–681 (NTD) (yeast) (UniProt Q05471); assay: as above
[6] = biological target: Swr1 C-terminal truncation at residue 1410 (yeast) (UniProt Q05471); assay: as above
[7] = biological target: Swr1 actin binding site deletion mutant ΔA2 (missing residues 410–459) (yeast) (UniProt Q05471); assay: as above
[8] = biological target: Swr1 (residues 1–1514 with an N-terminal 8-histidine and C-terminal twin Strep-tag) (yeast) (UniProt Q05471); assay: as above
[9] = biological target: Swr1 N-terminal truncation to residue 409 (yeast) (UniProt Q05471); assay: as above
[10] = biological target: Swr1 C-terminal truncation to 1359 (yeast) (UniProt Q05471); assay: as above
[11] = biological target: Swr1 N-terminal truncation to residue 299 (yeast) (UniProt Q05471); assay: as above
[12] = biological target: Swr1 N-terminal truncation, first 264 residues removed (yeast) (UniProt Q05471); assay: as above
[13] = biological target: Swr1 residues (1–681)-(GGGS)2-(1360–1514) (ΔATPase) (yeast) (UniProt Q05471); assay: as above
[14] = biological target: Swr1 C-terminal truncation, truncated at residue 1497 (yeast) (UniProt Q05471); assay: as above
[15] = biological target: Swr1 N-terminal truncation, first 210 residues removed (yeast) (UniProt Q05471); assay: as above
Yaf9 (yeast) = biological target: T1, Yaf9 (yeast) (UniProt P53930); assay: co-purification of co-expressed subunits (StrepTactin affinity, ion exchange, SDS gel); as a1, but the Yaf9 gene omitted from the co-expression
T1 sequence: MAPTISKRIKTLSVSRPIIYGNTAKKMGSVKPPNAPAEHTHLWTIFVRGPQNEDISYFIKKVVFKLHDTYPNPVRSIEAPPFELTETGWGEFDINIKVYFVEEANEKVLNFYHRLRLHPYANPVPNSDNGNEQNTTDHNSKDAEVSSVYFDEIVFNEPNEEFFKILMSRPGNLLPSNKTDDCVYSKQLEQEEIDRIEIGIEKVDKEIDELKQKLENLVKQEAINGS

Measured: binding

actin (from UniProt P60010 1-375)
not listed: Yaf9 (yeast)
binds: all other assays above

B1: Bdf1 (protein, UniProt P35817 1-686)
chain: MTDITPVQNDVDVNGNNVNDDVSSNLKRPIDQGDPSNGLAEEENPANNQLHLKKARLDGDALTSSPAGLAENGIEGATLAANGENGYNATGSGAEDEQQGLKKEEGGQGTKQEDLDENSKQELPMEVPKEPAPAPPPEPDMNNLPQNPIPKHQQKHALLAIKAVKRLKDARPFLQPVDPVKLDIPFYFNYIKRPMDLSTIERKLNVGAYEVPEQITEDFNLMVNNSIKFNGPNAGISQMARNIQASFEKHMLNMPAKDAPPVIAKGRRSSAQEDAPIVIRRAQTHNGRPKRTIHPPKSKDIYPYESKKPKSKRLQQAMKFCQSVLKELMAKKHASYNYPFLEPVDPVSMNLPTYFDYVKEPMDLGTIAKKLNDWQYQTMEDFERDVRLVFKNCYTFNPDGTIVNMMGHRLEEVFNSKWADRPNLDDYDSDEDSRTQGDYDDYESEYSESDIDETIITNPAIQYLEEQLARMKVELQQLKKQELEKIRKERRLARGSKKRGKRSKGRSGSKNASSKGRRDKKNKLKTVVTYDMKRIITERINDLPTSKLERAIDIIKKSMPNISEDDEVELDLDTLDNHTILTLYNTFFRQYESSSGASNGLDGTSGVTRDASSLSPTSAGSRKRRSKALSQEEQSRQIEKIKNKLAILDSASPLSQNGSPGQIQSAAHNGFSSSSDDDVSSESEEE
binds: Yaf9 (yeast) | [8] | [15]
